Results as given in BindingDB's records for doi:10.1128/AAC.00819-20 (Institut Pasteur Korea, 2020).

Molecular target: Replicase polyprotein 1ab (Severe acute respiratory syndrome coronavirus 2, UniProt P0DTD1)

## CC(C)(C)c1ccc(C(=O)CCCN2CCC(OC(c3ccccc3)c3ccccc3)CC2)cc1 [Bactil]
  IC50: 920 nM
